Measured values published in publication PMC11394124.
Results are given in words; binding and its absence hold for the method and conditions named. Where a sequence is shown, tags or fusion partners need not be part of it.

Amino acid sequences for entries named in this document (tags omitted). Residues count along the entry.
UniProt Q99836, residues 155-296: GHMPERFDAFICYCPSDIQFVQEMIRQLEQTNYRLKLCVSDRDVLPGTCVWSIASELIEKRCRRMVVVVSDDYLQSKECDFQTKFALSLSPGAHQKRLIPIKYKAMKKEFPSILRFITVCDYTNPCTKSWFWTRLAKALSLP

B1: TLR1 TIR domain (TLR1^TIR), residues 625-786, N-terminal 6xHis tag (domain or fragment, UniProt Q15399 625-786)
chain: NIPLEELQRNLQFHAFISYSGHDSFWVKNELLPNLEKEGMQICLHERNFVPGKSIVENIITCIEKSYKSIFVLSPNFVQSEWCHYELYFAHHNLFHEGSNSLILILLEPIPQYSIPSSYHKLKSLMARRTYLEWPKEKSKRGLFWANLRAAINIKLTEQAKK
B2: TLR6 TIR domain (TLR6^TIR), residues 637-783, N-terminal 6xHis tag (domain or fragment, UniProt Q9Y2C9 637-783)
chain: QRNLQFHAFISYSEHDSAWVKSELVPYLEKEDIQICLHERNFVPGKSIVENIINCIEKSYKSIFVLSPNFVQSEWCHYELYFAHHNLFHEGSNNLILILLEPIPQNSIPNKYHKLKALMTQRTYLQWPKEKSKRGLFWANIRAAFNM

Key:
[1] = biological target: MyD88 TIR domain (MyD88^TIR), residues 155-296, C-terminal 6xHis tag (UniProt Q99836); assay: condition: 30 µM TLR1^TIR with 60 µM MyD88^TIR (negative-stain EM); turbidity-based polymerization assay + negative-stain EM; purified proteins mixed in GF buffer (10 mM HEPES pH 7.5, 150 mM NaCl, 1 mM DTT), 30 °C, absorbance at 350 nm every 30 s for 1 h; samples then seen by negative-stain EM; 60 µM MyD88^TIR with 30-120 µM receptor TIR domain; both purified
[2] = biological target: MyD88 TIR domain (MyD88^TIR), residues 155-296, C-terminal 6xHis tag (UniProt Q99836); assay: condition: 30 µM TLR6^TIR with 60 µM MyD88^TIR (negative-stain EM); turbidity-based polymerization assay + negative-stain EM; purified proteins mixed in GF buffer (10 mM HEPES pH 7.5, 150 mM NaCl, 1 mM DTT), 30 °C, absorbance at 350 nm every 30 s for 1 h; samples then seen by negative-stain EM; 60 µM MyD88^TIR with 30-120 µM receptor TIR domain; both purified

Binder	binding [1]	binding [2]
B1	no binding	–
B2	–	no binding
